These are yes or no findings as the source states them, for the method shown.
Molecular target: T1, zebrafish Nogo receptor zNgRH2a (zebrafish)
T1 sequence: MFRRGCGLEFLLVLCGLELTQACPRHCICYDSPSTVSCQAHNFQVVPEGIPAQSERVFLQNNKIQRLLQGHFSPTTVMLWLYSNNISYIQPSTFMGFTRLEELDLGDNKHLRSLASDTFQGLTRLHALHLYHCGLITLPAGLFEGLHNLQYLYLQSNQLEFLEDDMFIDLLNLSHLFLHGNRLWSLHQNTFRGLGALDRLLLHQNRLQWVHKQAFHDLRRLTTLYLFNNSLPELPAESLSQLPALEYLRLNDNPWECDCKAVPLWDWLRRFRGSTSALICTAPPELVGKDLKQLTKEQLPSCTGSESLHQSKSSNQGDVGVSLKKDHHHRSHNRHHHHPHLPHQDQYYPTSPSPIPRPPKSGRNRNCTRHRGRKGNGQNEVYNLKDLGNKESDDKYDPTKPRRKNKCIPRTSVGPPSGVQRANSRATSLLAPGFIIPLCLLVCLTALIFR
Assay: alkaline phosphatase (AP) fusion binding assay on transfected cells; COS-1 cells transfected with one zebrafish Nogo receptor or pcDNA3 alone, incubated with conditioned media containing AP fusion proteins at room temperature for 3 h in HBH pH 7.0; fixed, endogenous AP heat-inactivated at 65°C, bound AP detected by NBT/BCIP

binding: no binding
Substance: AP-N(1–132)zNogo-B (zebrafish) (domain or fragment)

— publication PMC3897714
